The values below come from patent publication US6222018.

Data set [1] has as its system HIF-1 (HIF-1alpha/HIF-1beta (ARNT)) in nuclear extract (Homo sapiens). The data set can be described thus: EMSA. To be noted: CoCl2/hypoxia-induced; supershifted by anti-HIF-1alpha and anti-HIF-1beta sera; protein in an extract; letters built from the parent sequence and the stated change.
Data set [2] relates to constitutive DNA binding factor (C1/C2) (Homo sapiens). In words: EMSA. To be noted: sequence-specific; protein in an extract; letters built from the parent sequence and the stated change.
Data set [3] concerns HIF-1 (HIF-1alpha/HIF-1beta (ARNT)) in nuclear extract (Homo sapiens). The data set can be described thus: competition with a labelled probe. To be noted: unlabeled M18 does not compete, crude hypoxic Hep3B extract; protein in an extract; letters built from the parent sequence and the stated change; variant of W18 (hEPO 3'-FS nt 1-18).

Where cells or extracts were used, other partners may take part. For part of these data: No signal at the amounts used counts as a negative. For part of these data: The exact form of at least one protein or probe is not confirmed.

“GATCGCCCTACGTGCTGTCTCA / GATCTGAGACAGCACGTAGGGC [W18 (hEPO 3'-FS nt 1-18)]”: the binding result in data set [1] and in data set [2] was “binds” each time.

In the case of “GATCGCCCTAAAAGCTGTCTCA / GATCTGAGACAGCTTTTAGGGC [M18]”, in data set [3], the binding result is “no binding”.
